Test results from article PMC11049971.

Chains of the proteins cited; added tags and fusions are not shown.
UniProt P09884: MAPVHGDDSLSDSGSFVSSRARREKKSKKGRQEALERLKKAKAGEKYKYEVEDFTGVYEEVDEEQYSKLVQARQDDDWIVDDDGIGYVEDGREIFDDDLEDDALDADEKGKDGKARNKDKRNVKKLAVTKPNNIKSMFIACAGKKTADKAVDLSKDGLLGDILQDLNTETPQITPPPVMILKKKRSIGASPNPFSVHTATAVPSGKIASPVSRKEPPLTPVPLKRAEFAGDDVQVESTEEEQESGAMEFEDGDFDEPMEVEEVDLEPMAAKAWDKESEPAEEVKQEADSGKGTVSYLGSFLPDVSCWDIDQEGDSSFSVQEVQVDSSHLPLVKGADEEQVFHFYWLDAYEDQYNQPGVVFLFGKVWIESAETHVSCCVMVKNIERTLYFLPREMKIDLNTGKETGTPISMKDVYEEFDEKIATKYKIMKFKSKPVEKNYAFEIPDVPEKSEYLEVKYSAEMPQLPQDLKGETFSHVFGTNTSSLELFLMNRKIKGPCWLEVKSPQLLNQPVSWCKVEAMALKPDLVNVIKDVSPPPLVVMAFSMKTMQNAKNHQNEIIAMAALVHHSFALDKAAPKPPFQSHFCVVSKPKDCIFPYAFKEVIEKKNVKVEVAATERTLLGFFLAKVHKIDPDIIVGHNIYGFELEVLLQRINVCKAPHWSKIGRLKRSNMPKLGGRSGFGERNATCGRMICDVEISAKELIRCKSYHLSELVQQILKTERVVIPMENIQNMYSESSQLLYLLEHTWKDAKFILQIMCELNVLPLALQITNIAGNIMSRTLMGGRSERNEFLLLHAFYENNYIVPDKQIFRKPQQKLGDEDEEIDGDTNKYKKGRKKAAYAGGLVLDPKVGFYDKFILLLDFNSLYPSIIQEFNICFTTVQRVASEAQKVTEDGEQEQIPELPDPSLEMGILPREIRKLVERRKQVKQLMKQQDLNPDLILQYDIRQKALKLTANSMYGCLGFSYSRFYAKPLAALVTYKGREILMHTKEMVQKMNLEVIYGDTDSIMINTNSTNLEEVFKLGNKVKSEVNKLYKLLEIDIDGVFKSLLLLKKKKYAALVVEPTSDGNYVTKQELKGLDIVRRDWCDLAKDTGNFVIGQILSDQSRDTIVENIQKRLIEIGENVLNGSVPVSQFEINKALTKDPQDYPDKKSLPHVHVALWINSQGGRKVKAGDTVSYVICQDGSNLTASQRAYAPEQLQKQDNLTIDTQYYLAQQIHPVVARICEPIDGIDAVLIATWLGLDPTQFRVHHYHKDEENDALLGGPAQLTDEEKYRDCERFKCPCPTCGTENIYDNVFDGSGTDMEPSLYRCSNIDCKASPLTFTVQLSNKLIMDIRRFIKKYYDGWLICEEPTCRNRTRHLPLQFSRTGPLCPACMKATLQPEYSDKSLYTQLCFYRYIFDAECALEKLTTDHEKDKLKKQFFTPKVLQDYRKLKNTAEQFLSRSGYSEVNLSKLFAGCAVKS

Biological target: DNA polymerase alpha catalytic subunit POLA1 (human (endogenous in HEK293T)) (UniProt P09884)
Assay: affinity purification with mass spectrometry

- binding: binds
B1: DNA primase subunit PRIM1 (protein, UniProt P49642 1-420)
chain: METFDPTELPELLKLYYRRLFPYSQYYRWLNYGGVIKNYFQHREFSFTLKDDIYIRYQSFNNQSDLEKEMQKMNPYKIDIGAVYSHRPNQHNTVKLGAFQAQEKELVFDIDMTDYDDVRRCCSSADICPKCWTLMTMAIRIIDRALKEDFGFKHRLWVYSGRRGVHCWVCDESVRKLSSAVRSGIVEYLSLVKGGQDVKKKVHLSEKIHPFIRKSINIIKKYFEEYALVNQDILENKESWDKILALVPETIHDELQQSFQKSHNSLQRWEHLKKVASRYQNNIKNDKYGPWLEWEIMLQYCFPRLDINVSKGINHLLKSPFSVHPKTGRISVPIDLQKVDQFDPFTVPTISFICRELDAISTNEEEKEENEAESDVKHRTRDYKKTSLAPYVKVFEHFLENLDKSRKGELLKKSDLQKDF

These are yes or no findings as the source states them, for the method shown. In cells and extracts the contact can be indirect. A yes stands for co-enrichment or nearness to the bait. Other partners may have been found.
